The source of these data is paper PMC12660846.

Protein sequences, listed by entry. Tags and fused reporters are not part of them. Residues count along the entry.
UniProt P27467, residues 19-352: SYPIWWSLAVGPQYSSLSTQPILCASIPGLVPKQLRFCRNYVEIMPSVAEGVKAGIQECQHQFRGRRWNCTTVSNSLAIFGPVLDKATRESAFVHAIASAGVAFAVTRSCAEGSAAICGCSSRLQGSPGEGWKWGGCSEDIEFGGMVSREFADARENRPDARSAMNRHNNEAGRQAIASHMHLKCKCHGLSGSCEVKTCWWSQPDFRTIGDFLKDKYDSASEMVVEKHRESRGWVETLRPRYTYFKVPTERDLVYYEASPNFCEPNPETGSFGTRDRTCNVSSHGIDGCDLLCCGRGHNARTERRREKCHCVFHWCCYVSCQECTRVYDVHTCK
UniProt P68400: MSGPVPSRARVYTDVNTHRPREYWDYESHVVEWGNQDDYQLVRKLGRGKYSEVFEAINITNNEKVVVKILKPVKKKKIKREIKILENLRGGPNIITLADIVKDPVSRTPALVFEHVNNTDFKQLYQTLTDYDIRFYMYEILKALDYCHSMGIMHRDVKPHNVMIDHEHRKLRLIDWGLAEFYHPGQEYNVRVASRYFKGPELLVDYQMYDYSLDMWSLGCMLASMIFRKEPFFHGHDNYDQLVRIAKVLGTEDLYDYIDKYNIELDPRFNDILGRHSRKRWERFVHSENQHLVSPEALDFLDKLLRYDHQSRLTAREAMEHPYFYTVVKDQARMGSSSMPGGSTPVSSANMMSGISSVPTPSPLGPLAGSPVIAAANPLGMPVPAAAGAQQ
UniProt P08754: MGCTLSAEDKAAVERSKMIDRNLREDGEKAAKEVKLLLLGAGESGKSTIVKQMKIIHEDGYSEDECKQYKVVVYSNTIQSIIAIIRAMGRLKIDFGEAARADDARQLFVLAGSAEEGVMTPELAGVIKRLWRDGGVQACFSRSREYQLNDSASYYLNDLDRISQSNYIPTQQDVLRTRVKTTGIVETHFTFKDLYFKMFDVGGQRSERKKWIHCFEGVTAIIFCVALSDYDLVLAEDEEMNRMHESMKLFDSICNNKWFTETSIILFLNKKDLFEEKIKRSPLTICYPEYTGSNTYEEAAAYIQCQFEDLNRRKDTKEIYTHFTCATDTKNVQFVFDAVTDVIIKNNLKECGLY
UniProt P49454: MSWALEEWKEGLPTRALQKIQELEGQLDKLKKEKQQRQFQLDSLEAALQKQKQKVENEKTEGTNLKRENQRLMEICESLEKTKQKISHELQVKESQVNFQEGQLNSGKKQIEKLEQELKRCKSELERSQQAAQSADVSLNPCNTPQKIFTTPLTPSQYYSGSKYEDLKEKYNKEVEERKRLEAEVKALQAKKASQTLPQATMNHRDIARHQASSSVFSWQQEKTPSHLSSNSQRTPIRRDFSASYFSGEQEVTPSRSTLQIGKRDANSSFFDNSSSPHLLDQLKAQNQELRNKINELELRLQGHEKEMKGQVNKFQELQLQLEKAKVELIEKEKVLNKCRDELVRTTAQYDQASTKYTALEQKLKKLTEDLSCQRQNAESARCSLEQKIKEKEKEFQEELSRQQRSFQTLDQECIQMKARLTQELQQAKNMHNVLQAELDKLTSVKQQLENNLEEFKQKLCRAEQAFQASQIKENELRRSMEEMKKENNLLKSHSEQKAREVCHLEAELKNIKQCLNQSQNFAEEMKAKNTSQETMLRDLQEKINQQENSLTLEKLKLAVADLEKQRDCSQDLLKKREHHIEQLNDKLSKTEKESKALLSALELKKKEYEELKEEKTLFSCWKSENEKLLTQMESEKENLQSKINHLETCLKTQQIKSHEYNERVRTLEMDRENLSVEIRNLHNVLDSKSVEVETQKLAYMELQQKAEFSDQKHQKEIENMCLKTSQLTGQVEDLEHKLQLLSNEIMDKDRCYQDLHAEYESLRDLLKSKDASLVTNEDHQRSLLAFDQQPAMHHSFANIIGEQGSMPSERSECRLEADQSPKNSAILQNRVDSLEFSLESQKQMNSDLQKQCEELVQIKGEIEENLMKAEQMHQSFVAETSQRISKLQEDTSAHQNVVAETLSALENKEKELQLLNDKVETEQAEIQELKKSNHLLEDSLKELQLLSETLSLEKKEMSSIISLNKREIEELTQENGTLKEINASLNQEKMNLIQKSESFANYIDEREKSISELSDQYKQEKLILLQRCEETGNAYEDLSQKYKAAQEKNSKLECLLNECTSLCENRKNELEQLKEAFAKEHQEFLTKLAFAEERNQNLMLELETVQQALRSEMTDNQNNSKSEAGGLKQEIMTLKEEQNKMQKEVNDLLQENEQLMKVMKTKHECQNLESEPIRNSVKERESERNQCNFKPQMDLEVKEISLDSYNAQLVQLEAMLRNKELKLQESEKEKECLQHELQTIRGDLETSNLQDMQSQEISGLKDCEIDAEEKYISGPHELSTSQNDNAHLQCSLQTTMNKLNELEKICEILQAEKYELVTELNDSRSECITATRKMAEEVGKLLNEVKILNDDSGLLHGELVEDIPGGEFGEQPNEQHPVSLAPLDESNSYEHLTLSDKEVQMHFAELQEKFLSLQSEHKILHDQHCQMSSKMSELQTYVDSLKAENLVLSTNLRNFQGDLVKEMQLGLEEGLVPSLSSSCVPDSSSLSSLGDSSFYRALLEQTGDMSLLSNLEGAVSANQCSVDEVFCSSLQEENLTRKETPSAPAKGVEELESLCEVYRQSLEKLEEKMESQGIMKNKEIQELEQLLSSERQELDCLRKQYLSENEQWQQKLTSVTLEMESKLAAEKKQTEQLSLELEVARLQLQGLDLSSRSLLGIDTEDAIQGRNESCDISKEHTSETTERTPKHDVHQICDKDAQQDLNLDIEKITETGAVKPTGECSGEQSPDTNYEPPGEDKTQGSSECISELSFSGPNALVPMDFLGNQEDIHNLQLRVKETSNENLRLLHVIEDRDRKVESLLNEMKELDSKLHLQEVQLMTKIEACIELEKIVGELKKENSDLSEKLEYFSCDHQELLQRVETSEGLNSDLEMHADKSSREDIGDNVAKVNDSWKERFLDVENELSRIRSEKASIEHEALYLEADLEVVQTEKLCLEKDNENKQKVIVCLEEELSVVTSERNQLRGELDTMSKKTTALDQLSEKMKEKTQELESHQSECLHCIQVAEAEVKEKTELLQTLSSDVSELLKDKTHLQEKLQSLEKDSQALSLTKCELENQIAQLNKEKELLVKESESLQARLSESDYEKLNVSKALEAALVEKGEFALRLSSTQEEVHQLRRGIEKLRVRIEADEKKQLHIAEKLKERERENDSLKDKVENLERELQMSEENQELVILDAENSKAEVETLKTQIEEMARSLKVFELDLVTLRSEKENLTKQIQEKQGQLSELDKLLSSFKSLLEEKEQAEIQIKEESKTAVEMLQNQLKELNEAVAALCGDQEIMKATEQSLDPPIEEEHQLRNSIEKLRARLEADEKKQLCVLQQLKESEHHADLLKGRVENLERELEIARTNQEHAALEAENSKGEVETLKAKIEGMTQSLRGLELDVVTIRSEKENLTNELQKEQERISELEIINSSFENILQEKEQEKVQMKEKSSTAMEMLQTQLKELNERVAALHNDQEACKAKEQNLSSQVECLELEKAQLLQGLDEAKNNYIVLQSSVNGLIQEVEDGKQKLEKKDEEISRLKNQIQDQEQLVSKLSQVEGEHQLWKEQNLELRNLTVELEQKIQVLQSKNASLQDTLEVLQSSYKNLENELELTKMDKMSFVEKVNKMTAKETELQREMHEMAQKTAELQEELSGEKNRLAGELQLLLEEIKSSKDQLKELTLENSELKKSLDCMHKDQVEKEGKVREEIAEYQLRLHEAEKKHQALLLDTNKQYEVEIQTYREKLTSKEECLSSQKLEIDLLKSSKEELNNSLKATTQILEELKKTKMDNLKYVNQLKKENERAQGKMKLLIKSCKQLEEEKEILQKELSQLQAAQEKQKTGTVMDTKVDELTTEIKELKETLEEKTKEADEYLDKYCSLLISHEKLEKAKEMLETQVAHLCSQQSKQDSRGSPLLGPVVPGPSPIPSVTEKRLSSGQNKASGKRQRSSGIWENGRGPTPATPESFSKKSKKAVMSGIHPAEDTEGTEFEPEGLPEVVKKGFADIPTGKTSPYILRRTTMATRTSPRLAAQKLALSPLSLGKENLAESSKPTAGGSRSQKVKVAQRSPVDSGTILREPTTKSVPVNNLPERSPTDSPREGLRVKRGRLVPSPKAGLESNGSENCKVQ
UniProt P31431, residues 19-198: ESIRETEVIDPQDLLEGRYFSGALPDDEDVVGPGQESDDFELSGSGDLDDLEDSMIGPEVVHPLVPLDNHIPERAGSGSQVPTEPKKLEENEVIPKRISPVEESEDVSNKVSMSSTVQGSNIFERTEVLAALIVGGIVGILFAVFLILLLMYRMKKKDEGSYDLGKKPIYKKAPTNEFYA
UniProt O43795: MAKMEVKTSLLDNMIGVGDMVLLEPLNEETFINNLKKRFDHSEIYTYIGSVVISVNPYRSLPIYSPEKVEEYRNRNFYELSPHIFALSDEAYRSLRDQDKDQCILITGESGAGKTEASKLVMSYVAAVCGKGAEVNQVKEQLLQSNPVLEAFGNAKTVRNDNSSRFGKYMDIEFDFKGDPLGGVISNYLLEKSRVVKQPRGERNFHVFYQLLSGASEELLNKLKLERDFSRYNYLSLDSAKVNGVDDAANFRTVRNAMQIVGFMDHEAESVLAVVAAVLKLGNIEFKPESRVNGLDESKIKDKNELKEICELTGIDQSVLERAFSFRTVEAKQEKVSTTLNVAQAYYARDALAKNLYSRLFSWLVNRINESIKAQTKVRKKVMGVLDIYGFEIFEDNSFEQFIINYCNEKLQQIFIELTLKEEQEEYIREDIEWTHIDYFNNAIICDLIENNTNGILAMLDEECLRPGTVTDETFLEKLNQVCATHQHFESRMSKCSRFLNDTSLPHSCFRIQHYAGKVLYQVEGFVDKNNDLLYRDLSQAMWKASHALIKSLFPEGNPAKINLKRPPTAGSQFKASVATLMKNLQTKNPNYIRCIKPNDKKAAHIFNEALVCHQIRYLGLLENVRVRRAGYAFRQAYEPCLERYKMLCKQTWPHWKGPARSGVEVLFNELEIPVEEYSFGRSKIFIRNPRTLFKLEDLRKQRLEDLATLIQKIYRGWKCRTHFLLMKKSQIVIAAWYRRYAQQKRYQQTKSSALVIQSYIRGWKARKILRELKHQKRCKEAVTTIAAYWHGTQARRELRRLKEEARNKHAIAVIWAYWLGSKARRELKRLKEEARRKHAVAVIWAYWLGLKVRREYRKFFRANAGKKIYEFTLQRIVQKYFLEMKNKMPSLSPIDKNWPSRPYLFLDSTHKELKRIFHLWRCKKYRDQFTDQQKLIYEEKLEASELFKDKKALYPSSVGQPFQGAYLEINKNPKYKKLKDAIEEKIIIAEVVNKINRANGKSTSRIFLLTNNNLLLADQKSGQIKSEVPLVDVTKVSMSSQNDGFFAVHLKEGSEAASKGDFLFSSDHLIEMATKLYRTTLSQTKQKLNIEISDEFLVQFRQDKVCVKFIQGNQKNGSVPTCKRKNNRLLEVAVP
UniProt Q03135: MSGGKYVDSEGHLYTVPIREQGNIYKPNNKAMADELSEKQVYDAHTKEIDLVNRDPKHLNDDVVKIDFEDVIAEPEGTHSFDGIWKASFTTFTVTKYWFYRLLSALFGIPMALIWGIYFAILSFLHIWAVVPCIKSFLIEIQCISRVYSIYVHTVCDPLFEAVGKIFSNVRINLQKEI
UniProt P11171: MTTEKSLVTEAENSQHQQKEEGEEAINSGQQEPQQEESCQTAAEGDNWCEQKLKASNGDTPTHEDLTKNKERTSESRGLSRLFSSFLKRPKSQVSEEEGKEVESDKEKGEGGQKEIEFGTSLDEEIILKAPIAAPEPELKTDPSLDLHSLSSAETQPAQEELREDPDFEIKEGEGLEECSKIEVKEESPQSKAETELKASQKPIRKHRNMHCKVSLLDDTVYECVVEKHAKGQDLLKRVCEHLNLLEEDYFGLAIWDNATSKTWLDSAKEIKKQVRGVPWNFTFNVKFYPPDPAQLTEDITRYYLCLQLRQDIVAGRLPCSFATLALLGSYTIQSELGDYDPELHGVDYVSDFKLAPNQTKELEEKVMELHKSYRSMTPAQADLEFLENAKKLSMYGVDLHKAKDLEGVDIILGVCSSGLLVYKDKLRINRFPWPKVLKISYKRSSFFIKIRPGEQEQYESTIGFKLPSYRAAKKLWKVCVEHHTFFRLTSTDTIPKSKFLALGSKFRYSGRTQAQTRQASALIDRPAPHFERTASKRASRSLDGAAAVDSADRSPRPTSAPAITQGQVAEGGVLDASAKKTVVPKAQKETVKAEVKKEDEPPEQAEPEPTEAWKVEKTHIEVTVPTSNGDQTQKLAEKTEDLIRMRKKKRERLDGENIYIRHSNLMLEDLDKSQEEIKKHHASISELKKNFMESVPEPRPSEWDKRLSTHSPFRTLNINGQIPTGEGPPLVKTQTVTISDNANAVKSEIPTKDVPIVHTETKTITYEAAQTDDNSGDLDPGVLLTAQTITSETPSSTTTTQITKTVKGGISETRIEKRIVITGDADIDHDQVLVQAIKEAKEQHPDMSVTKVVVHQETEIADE

Sequences and labels used below:
B1: syndecan-1 (protein, UniProt P18827 23-310)
chain: QIVATNLPPEDQDGSGDDSDNFSGSGAGALQDITLSQQTPSTWKDTQLLTAIPTSPEPTGLEATAASTSTLPAGEGPKEGEAVVLPEVEPGLTAREQEATPRPRETTQLPTTHLASTTTATTAQEPATSHPHRDMQPGHHETSTPAGPSQADLHTPHTEDGGPSATERAAEDGASSQLPAAEGSGEQDFTFETSGENTAVVAVEPDRRNQSPVDQGATGASQGLLDRKEVLGGVIAGGLVGLIFAVCLVGFMLYRMKKKDEGSYSLEEPKQANGGAYQKPTKQEEFYA
B2: R-spondin-3 (protein, UniProt Q9BXY4 22-272)
chain: QNASRGRRQRRMHPNVSQGCQGGCATCSDYNGCLSCKPRLFFALERIGMKQIGVCLSSCPSGYYGTRYPDINKCTKCKADCDTCFNKNFCTKCKSGFYLHLGKCLDNCPEGLEANNHTMECVSIVHCEVSEWNPWSPCTKKGKTCGFKRGTETRVREIIQHPSAKGNLCPPTNETRKCTVQRKKCQKGERGKKGRERKRKKPNKGESKEAIPDSKSLESSKEIPEQRENKQQQKKRKVQDKQKSVSVSTVH

These are yes or no findings as the source states them, for the method shown. Binding seen in cells or lysates may run through a third protein. A yes stands for co-enrichment or nearness to the bait. Other partners may have been found.

The target of the test is murine Wnt3a (mouse) (UniProt P27467). Put plainly: affinity purification with mass spectrometry; murine Wnt3a covalently immobilised on magnetic Dynabeads, added to live HeLa cells with MG132 (metaphase arrest, 1 h); shake-off, lysis in 0.2% NP-40 without clearing, magnetic isolation, 3 washes; LC-MS/MS against BSA-coated beads, triplicate; only the target purified.
“CK2α (from UniProt P68400 1-391) (enzyme)”: the binding entry was “binds”.
Under Gαi3 (from UniProt P08754 1-354) stands “binds”; under CENP-F (from UniProt P49454 1-3114), “binds”.
Under syndecan-4 (from UniProt P31431 19-198) stands “binds”; under myosin1B (from UniProt O43795 1-1136), “binds”; under “MT depolymerase Kif2A (from UniProt O00139 1-706)”, “binds”.
The value for MACF1 (from UniProt Q9UPN3 1-7388) was “binds”; that for caveolin-1 (from UniProt Q03135 1-178) was “binds”; that for 4.1R (from UniProt P11171 1-864) was “binds”.
Regarding “nuclear mitotic apparatus protein (NuMA) (from UniProt Q14980 1-2115)”, the binding entry is given as “binds”.
For the molecule “PP2A phosphatase regulator PPP2R1A (from UniProt P30153 1-589)”, the binding result was “binds”.
The value for B1 was “binds”.
On to B2, for which the binding entry is recorded as “binds”.
